{
  "sequences": {"note": "The chains behind the UniProt entries cited, without tags or fusion partners. Where a name states a change or a piece, a line headed by the entry shows the natural chain unless it says otherwise.", "UniProt P0ACF0": "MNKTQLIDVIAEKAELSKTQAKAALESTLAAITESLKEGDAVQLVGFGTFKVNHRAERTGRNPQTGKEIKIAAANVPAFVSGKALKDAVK"},
  "source": "paper PMC7493962",
  "about": "“Structure-based inhibitors targeting the alpha-helical domain of the Spiroplasma melliferum histone-like HU protein” (Scientific Reports, 2020)",
  "target": "HUEc (Escherichia coli) (UniProt P0ACF0)",
  "assay": "EMSA",
  "conditions": "no BDF inhibitor; EMSA: 20 mM Tris-HCl pH 8.0, 150 mM NaCl, 7% glycerol, 10 nM DNA, 10 min, temperature not stated; recombinant protein; label: 5'-HEX on strand 1",
  "note": "The exact form of at least one protein or probe is not confirmed. At least one verdict rests on a figure or table, not on a statement of the authors.",
  "data": [
    {"sequence": "AGTCTAGAGTGCAAGTTGAGTCCTT / AAGGACTCAACTGCACTCTAGACT [DS24a (24a)]", "values": [
      {"measurement": "binding result", "value": "binds"}
    ]}
  ]
}
